According to patent publication US20250090441A1 (THE UNIVERSITY OF HONG KONG, priority 2023, published 2025):

Key:
[1] = general procedure: Fmoc solid-phase peptide synthesis; conditions: whole synthesis, HPLC area percentage of major peak, several disulfide bridges, sequence written open
[2] = Remineralizing effects on enamel, chemical pH cycling model (SEM-EDS, Micro-CT, XRD); set-up: species or system human; conditions: 160 μM, after pH cycling
Experimental: Ten enamel slices were cut from extracted sound human molars. Each slice was separated into four blocks. A total of 40 enamel blocks were prepared. Then the surface of the enamel block was half-covered by an acid-resistant varnish. The exposed half was the experimental surface, and the varnished half was the internal control. Before use, all the enamel blocks were sterilized via autoclave (Niu et al. 2021d; Yu et al. 2018).
The pH-cycling procedure (16 h-demineralization at pH 4.5 and 8 h-remineralization at pH 7.0) was performed to enamel blocks for 8 days. The formula for demineralizing/remineralizing solution was employed from a previous study (Yu et al. 2018). […]
The structure of the enamel surface was examined using SEM (n=8 per group) (Niu et al. 2021d). […] The calcium to phosphorus molar ratio was calculated (Niu et al. 2022). The mineral loss and lesion depth on the enamel blocks were assessed using microcomputed tomography (Micro-CT) (1076, SkyScan, Antwerp, Belgium) (n=8 per group) (Niu et al. 2022). The diffraction patterns of the enamel blocks were evaluated using X-ray diffraction analysis (XRD) (Rigaku SmartLab 9 kW, […]) (n=2 per group) (Yu et al. 2018).

## RRWCFRVCYRGFCYRKCR
[1]
  purity (crude or final not stated): 96.91%

## CC(C)[C@@H]1NC(=O)[C@H](CCCN=C(N)N)NC(=O)[C@H](Cc2ccccc2)NC(=O)[C@@H](NC(=O)[C@H](Cc2c[nH]c3ccccc23)NC(=O)[C@H](CCCN=C(N)N)NC(=O)[C@H](CCCN=C(N)N)NC(=O)c2cc(O)c(O)c(O)c2)CSSC[C@@H](C(=O)N[C@@H](CCCN=C(N)N)C(=O)O)NC(=O)[C@H](CCCCN)NC(=O)[C@H](CCCN=C(N)N)NC(=O)[C@H](Cc2ccc(O)cc2)NC(=O)[C@@H]2CSSC[C@H](NC1=O)C(=O)N[C@@H](Cc1ccc(O)cc1)C(=O)N[C@@H](CCCN=C(N)N)C(=O)NCC(=O)N[C@@H](Cc1ccccc1)C(=O)N2 [GAPI, Gallic-Acid-Polyphemusin-I] (HELM PEPTIDE1{[O=C(c1cc(O)c(O)c(O)c1)[*:2]].R.R.W.C.F.R.V.C.Y.R.G.F.C.Y.R.K.C.R}$PEPTIDE1,PEPTIDE1,5:R3-18:R3|PEPTIDE1,PEPTIDE1,9:R3-14:R3$$$V2.0)
[2]
  X-ray diffraction reflection peak at full width and half maximum: 0.237 °

For some assays here: Where a sequence shows no end group, the ends are not given. Where a SMILES comes first, the peptide text is derived from it.
